# Experimental data from the supplement of paper PMC9877034.
# Structures can show the parent of a compound that is named as a salt. The full ranking holds about 1,000 compounds; the median of “cFRET/donor change relative to DMSO, normalised to beta-lapachone positive control (supercomplex I-IV assembly)” is about 0.18, and the lowest 2% start at about -1. This is one part of the list.
# Tested on: C2C12 (NDUFB8-AcGFP / COX8A-DsRed-Monomer FRET reporter)
# Assay: cFRET/donor change relative to DMSO, normalised to beta-lapachone positive control (supercomplex I-IV assembly) (fraction of beta-lapachone effect); higher = more respiratory supercomplex assembly
# Conditions: 40 µM; 24 h
# Method: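 Cells were treated with 40 uM compound for 24 h and imaged on an IN Cell Analyzer 6000. Corrected FRET was divided by donor signal (cFRET/donor) and measured in two replicate experiments. The score is (mean cFRET/donor of compound - mean DMSO) / (mean beta-lapachone 40 uM - mean DMSO). Compounds flagged for prominent cell death, abnormal morphology or decreased cell number were excluded.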
row,SMILES,cFRET/donor change
1,CCCCCCCCCCC(C)(C)C(=O)Nc1c(OC)cc(OC)cc1OC,0.904
2,Cn1c(=O)c2[nH]c(-c3ccc(S(=O)(=O)O)cc3)nc2n(C)c1=O [8-(p-Sulfophenyl)theophylline],0.086
3,C[C@@H]1O[C@@H]1P(=O)(O)O [Phosphomycin disodium],-0.0803
4,CCN(CC)CCCC(C)Nc1c2ccc(Cl)cc2nc2ccc(OC)cc12 (stereo not drawn) [Quinacrine dihydrochloride],-4.52
5,CN(CCOc1ccc(NS(C)(=O)=O)cc1)CCc1ccc(NS(C)(=O)=O)cc1 [Dofetilide],0.532
6,COc1ccc2cccc(CCNC(C)=O)c2c1 [Agomelatine],0.0655
7,CC1=C(C)C(=O)C(CCCCC#CCCCC#CCO)=C(C)C1=O,0.121
8,Nc1nc2ccc(Cl)cc2n2c(-c3ccccc3)nnc12,-1.23
9,CNc1cc(NS(=O)(=O)c2ccc(N)cc2)nc(NC)n1 [Ro 04-6790 dihydrochloride],-0.245
10,CCOC(=O)[C@H](CCc1ccccc1)N[C@@H](C)C(=O)N1[C@H](C(=O)O)C[C@H]2CCCC[C@@H]21 [Trandolapril],-0.23
11,CNC[C@H](O)c1cccc(O)c1 [Phenylephrine hydrochloride],0.454
12,CC(=O)NNC(=O)N1Cc2ccccc2Oc2ccc(Cl)cc21,0.188
13,CC[C@H]1OC(=O)[C@H](C)[C@@H](O[C@H]2C[C@@](C)(OC)[C@@H](O)[C@H](C)O2)[C@H](C)[C@@H](O[C@@H]2O[C@H](C)C[C@H](NC)[C@H]2O)[C@](C)(O)C[C@@H](C)CN(C)[C@H](C)[C@@H](O)[C@]1(C)O,0.325
14,"CCCCCCN(CCCCCC)C(=O)Cc1c(-c2ccc(F)cc2)[nH]c2ccccc12 [N,N-Dihexyl-2-(4-fluorophenyl)indole-3-acetamide]",-0.00542
15,CCN(CC)CCNC(=O)c1ccc(NC(C)=O)cc1 [N-Acetylprocainamide hydrochloride],0.203
16,[Cl-].[Li+] [Lithium Chloride],0.000589
17,O=C(O)CN(CCOCCOCCN(CC(=O)O)CC(=O)O)CC(=O)O,0.309
18,CNC(=C[N+](=O)[O-])NCCSCc1ccc(CN(C)C)o1 [Ranitidine hydrochloride],-0.00968
19,CC(C)C[C@H](NC(=O)[C@@H](O)[C@H](N)Cc1ccccc1)C(=O)O [Bestatin hydrochloride],-0.00775
20,COC(=O)[C@H]1[C@H]2C[C@@H]3c4[nH]c5cc(OC)ccc5c4CCN3C[C@H]2C[C@@H](OC(=O)c2cc(OC)c(OC)c(OC)c2)[C@@H]1OC [Reserpine],-0.411
21,CC(C)Cc1ccc([C@H](C)C(=O)O)cc1 [S(+)-Ibuprofen],0.234

row,SMILES,cFRET/donor change
1,O=c1[nH]cc(F)c(=O)[nH]1 [5-Fluorouracil],0.191
2,N=c1ccn2c(n1)O[C@H]1[C@H](O)[C@@H](CO)O[C@H]12 [Ancitabine hydrochloride],-0.0397
3,C[N+](C)(C)CCO.[Br-] [Choline bromide],0.313
4,CC(=O)Oc1cc(C(F)(F)F)ccc1C(=O)O [Triflusal],0.114
5,C[C@@H](c1ncncc1F)[C@](O)(Cn1cncn1)c1ccc(F)cc1F [Voriconazole],0.181
6,O=C(O)Cc1ccccc1Nc1c(Cl)cccc1Cl [Diclofenac sodium],0.224
7,Cc1cccc(-c2[nH]c(C(C)(C)C)nc2-c2ccc3nccnc3c2)n1,-0.172
8,COc1ccc(CCN(C)CCc2ccc(OC)c(OC)c2)cc1OC [YS-035 hydrochloride],0.59
9,CC[N+](CC)(CC)CC [Tetraethylammonium chloride],0.0424
10,Cc1ccccc1/C=C/C1=NCCN1 [Metrazoline oxalate],0.469
11,Clc1ccc2c(c1)N=C(N1CCNCC1)c1ccccc1N2 [N-Desmethylclozapine],0.316
12,COc1cc2c(CCNC(C)=O)c[nH]c2cc1O [6-Hydroxymelatonin],0.0831
13,COc1cc2c(cc1O)CC[C@@H]1[C@@H]2CC[C@]2(C)[C@@H](O)CC[C@@H]12 [2-methoxyestradiol],0.518
14,CNC(=O)[C@H]1O[C@@H](n2cnc3c(NCc4ccc(N)cc4)ncnc32)[C@H](O)[C@@H]1O,0.125
15,O=C1NC(=O)/C(=C\c2ccc3nccnc3c2)S1,2.84
16,O=C(O)CCc1nc(-c2ccccc2)c(-c2ccccc2)o1 [Oxaprozin],-0.11
17,Clc1ccc2c(c1)C(N1CCNCC1)=Nc1ccccc1O2 [Amoxapine],0.34
18,NCCCCC(=O)O [5-Aminovaleric acid hydrochloride],0.189
19,CC(C)(Oc1ccc(CCNC(=O)c2ccc(Cl)cc2)cc1)C(=O)O [Bezafibrate],0.518
20,CC(C)(C)c1ccc(/C=C/C(=O)Nc2ccc3c(c2)OCCO3)cc1,0.0888
21,Cc1ccc(N(CC2=NCCN2)c2cccc(O)c2)cc1 [Phentolamine mesylate],0.504

row,SMILES,cFRET/donor change
1,CC(C)NCC(O)c1ccc(O)c(O)c1 (racemic) [(±)-Isoproterenol hydrochloride],0.469
2,C[C@]12CCC(=O)C=C1CC[C@@H]1[C@@H]2C(=O)C[C@@]2(C)[C@H]1CC[C@]2(O)C(=O)CO [Cortisone],0.00153
3,COCCCC/C(=N\OCCN)c1ccc(C(F)(F)F)cc1 [Fluvoxamine maleate],0.216
4,O=C1/C(=C/c2cccs2)CC/C1=C\c1cccs1,0.584
5,O=C(O)C1CCCNC1 (racemic) [(±)-Nipecotic acid],0.101
6,CCN(CC)CCNC(=O)c1ccc(NS(C)(=O)=O)cc1 [Sematilide monohydrochloride monohydrate],0.066
7,C[C@H](N[C@@H](CCc1ccccc1)C(=O)O)C(=O)N1CCC[C@H]1C(=O)O [Enalaprilat dihydrate],0.121
8,O=C(OCCN1CCOCC1)C1(c2ccccc2)CCCCC1,0.722
9,COc1ccc(CC(C)NCC(O)c2ccc(O)c(NC=O)c2)cc1 (stereo not drawn) [Formoterol],0.342
10,CCCCCN(C)CCC(O)(P(=O)(O)O)P(=O)(O)O [Ibandronate sodium],0.0449
11,CN(C)C[C@H](O)Cn1c2ccc(Br)cc2c2cc(Br)ccc21 (racemic) [Wiskostatin],0.951
12,c1ccc2c(c1)CCCC2C1=NCCN1 (stereo not drawn) [Tetrahydrozoline hydrochloride],0.174
13,C[C@@H](O)[C@H]1C(=O)N2C(C(=O)O)=C(SCCNC=N)C[C@H]12 [Imipenem monohydrate],0.461
14,N[C@@H](CC(=O)O)C(=O)O [L-Aspartic acid],-0.0562
15,C[C@](N)(Cc1ccc(O)cc1)C(=O)O [L-alpha-Methyl-p-tyrosine],-0.261
16,CNCCNS(=O)(=O)c1cccc2cnccc12 [H-8 dihydrochloride],-0.319
17,O=C(O)Cn1c(C(=O)Nc2nc(-c3ccccc3Cl)cs2)cc2ccccc21,0.298
18,CCNC(=O)[C@H]1O[C@@H](n2cnc3c(N)nc(NCCc4ccc(CCC(=O)O)cc4)nc32)[C@H](O)[C@@H]1O,-0.069
19,C[N+](C)(C)CCOP(=O)(O)OP(=O)([O-])OC[C@H]1O[C@@H](n2ccc(N)nc2=O)[C@H](O)[C@@H]1O [Cytidine 5'-diphosphocholine sodium salt hydrate],0.219
20,O=C1NC(=O)C(c2ccccc2[N+](=O)[O-])=C1Nc1ccc(O)c(Cl)c1,-0.443
21,"CC1(C)CCC=[N+]1[O-] [5,5-Dimethyl-1-pyrroline-N-oxide]",0.48

row,SMILES,cFRET/donor change
1,C=CC(N)CCC(=O)O (racemic) [(±)-gamma-Vinyl GABA],-0.109
2,O=C(O)C1CCNCC1 [Isonipecotic acid],0.0285
3,CC1(C)CCC(NC(=O)[C@@H](N)CCC(=O)O)CC1,0.318
4,CC(=Cc1ccc(C(=O)O)cc1)c1ccc2c(c1)C(C)(C)CCC2(C)C,0.422
5,O=C(O)CCCCCCCC(=O)O [Azelaic acid],0.358
6,COC(=O)Nc1nc2cc(C(=O)c3cccs3)ccc2[nH]1 [Nocodazole],-0.0123
7,CCN[C@H]1CN(CCCOC)S(=O)(=O)c2sc(S(N)(=O)=O)cc21 [Brinzolamide],-0.0238
8,CN(C)CCC(c1ccc(Cl)cc1)c1ccccn1 (racemic) [(±)-Chlorpheniramine maleate],0.264
9,CC(C)c1c(C(=O)Nc2ccccc2)c(-c2ccccc2)c(-c2ccc(F)cc2)n1CC[C@@H](O)C[C@@H](O)CC(=O)O [Atorvastatin calcium salt trihydrate],-0.0539
10,COc1ccc(-c2cc(=O)c3c(O)c(OC)c(OC)cc3o2)cc1O [Eupatorin],0.395
11,CC[N+](C)(C)c1cccc(O)c1 [Edrophonium chloride],0.32
12,NCCc1c[nH]cn1 [Histamine dihydrochloride],-0.0794
13,Cc1cn[nH]c1 [4-Methylpyrazole hydrochloride],-0.121
14,CC(C)(C=O)Cc1cc(C(C)(C)C)c(O)c(C(C)(C)C)c1,0.29
15,CN1CCC(=C2c3ccccc3C=Cc3ccccc32)CC1 [Cyproheptadine hydrochloride],0.46
16,CC(C)(C)NCC(O)COc1cccc2[nH]c(=O)[nH]c12 (racemic),0.178
17,NNCCc1ccccc1 [Phenelzine sulfate],0.486
18,NC1(C(=O)O)CCCCC1 [1-Amino-1-cyclohexanecarboxylic acid hydrochloride],0.0615
19,NCCC[C@](N)(C(=O)O)C(F)F (racemic) [DL-alpha-Difluoromethylornithine hydrochloride],0.232
20,N=C(NC(=O)c1nc(Cl)c(N)nc1N)Nc1ccccc1 [Phenamil methanesulfonate],0.275

# Some of these compounds in order of count of non-hydrogen atoms, falling.
row,SMILES,cFRET/donor change
14,"CCCCCCN(CCCCCC)C(=O)Cc1c(-c2ccc(F)cc2)[nH]c2ccccc12 [N,N-Dihexyl-2-(4-fluorophenyl)indole-3-acetamide]",-0.00542
7,CCN[C@H]1CN(CCCOC)S(=O)(=O)c2sc(S(N)(=O)=O)cc21 [Brinzolamide],-0.0238
3,CC1(C)CCC(NC(=O)[C@@H](N)CCC(=O)O)CC1,0.318
